This is one part of the list.
Compound: Cc1cc(ccc1-c1ccccc1)C(=O)N1CCCN(CC1)C(=O)CCl [compound 10]
Assay: probe-labelled cysteine peptide fold change vs DMSO (competition) (log2 fold change); higher = less target engagement (more negative = stronger competition)
Conditions: THP-1, incubation time: 4 h
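Also: competitive profiling in live THP-1 cells: cysteine peptides tagged with an iodoacetamide desthiobiotin (IA-DTB) probe, intensity after compound treatment relative to DMSO-treated cells.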

The chains behind the UniProt entries cited, without tags or fusion partners. Where a name states a change or a piece, a line headed by the entry shows the natural chain unless it says otherwise.
UniProt Q15717, whole entry, looked up: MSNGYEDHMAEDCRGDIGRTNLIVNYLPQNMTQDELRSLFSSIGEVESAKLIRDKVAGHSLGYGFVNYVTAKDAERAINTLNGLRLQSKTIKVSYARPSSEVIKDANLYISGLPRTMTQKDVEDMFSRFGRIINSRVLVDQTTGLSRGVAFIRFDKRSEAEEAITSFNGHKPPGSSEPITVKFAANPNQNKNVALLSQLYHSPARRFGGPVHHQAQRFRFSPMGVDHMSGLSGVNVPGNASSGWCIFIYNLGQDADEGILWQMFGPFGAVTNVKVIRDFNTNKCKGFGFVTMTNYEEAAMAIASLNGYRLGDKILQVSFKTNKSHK
UniProt P34913, whole entry, looked up: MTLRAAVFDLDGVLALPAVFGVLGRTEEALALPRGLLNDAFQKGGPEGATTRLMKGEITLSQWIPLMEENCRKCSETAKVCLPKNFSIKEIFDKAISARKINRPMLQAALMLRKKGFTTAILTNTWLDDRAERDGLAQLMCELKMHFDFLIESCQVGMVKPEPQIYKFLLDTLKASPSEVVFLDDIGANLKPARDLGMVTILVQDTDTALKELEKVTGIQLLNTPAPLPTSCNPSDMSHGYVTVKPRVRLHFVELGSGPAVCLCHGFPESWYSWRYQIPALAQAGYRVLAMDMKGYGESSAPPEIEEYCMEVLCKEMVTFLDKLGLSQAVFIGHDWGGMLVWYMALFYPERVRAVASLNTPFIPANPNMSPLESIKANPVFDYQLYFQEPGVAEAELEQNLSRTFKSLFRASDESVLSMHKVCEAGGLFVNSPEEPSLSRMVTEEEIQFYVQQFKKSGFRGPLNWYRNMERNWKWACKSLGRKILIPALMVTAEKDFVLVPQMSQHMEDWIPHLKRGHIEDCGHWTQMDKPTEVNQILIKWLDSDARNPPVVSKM
UniProt O95834: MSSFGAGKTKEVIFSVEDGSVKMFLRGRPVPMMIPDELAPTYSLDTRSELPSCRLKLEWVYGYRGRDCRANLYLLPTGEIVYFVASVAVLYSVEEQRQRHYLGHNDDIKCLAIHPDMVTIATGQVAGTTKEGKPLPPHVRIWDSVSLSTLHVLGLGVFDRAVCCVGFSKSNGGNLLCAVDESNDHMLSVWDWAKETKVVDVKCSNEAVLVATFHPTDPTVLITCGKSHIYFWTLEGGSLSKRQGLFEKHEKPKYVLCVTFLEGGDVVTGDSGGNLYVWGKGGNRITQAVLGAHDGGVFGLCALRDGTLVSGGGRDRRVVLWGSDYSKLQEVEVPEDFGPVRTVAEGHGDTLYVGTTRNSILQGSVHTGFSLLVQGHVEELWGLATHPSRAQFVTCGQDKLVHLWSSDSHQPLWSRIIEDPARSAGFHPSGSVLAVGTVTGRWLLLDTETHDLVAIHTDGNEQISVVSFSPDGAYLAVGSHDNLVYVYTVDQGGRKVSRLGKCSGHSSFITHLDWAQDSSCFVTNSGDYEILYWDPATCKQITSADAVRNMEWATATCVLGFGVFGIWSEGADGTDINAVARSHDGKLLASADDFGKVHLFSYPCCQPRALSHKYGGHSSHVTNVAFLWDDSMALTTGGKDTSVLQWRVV
UniProt P78344: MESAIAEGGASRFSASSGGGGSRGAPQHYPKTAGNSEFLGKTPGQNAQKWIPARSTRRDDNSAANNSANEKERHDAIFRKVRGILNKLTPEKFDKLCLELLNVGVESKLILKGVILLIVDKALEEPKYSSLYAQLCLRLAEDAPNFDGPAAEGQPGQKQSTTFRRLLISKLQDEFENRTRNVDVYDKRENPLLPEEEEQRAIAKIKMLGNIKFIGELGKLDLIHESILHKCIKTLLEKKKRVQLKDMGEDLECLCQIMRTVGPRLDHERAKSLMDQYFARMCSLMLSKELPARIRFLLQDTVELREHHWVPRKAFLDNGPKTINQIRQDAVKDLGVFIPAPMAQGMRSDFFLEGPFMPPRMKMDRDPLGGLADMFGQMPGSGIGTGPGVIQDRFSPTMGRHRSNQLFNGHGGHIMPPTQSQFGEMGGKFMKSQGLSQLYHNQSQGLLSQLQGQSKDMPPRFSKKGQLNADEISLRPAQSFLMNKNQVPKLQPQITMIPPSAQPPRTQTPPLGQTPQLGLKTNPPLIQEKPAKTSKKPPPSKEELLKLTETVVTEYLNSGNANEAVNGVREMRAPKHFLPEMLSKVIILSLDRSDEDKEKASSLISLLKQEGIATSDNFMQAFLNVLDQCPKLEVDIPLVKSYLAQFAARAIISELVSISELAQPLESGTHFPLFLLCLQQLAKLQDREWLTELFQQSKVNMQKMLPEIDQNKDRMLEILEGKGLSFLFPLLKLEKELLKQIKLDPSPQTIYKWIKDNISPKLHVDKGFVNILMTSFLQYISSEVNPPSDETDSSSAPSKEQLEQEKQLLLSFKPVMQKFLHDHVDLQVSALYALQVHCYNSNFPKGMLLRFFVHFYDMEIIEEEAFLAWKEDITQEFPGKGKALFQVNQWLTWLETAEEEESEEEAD
UniProt Q13347, whole entry, looked up: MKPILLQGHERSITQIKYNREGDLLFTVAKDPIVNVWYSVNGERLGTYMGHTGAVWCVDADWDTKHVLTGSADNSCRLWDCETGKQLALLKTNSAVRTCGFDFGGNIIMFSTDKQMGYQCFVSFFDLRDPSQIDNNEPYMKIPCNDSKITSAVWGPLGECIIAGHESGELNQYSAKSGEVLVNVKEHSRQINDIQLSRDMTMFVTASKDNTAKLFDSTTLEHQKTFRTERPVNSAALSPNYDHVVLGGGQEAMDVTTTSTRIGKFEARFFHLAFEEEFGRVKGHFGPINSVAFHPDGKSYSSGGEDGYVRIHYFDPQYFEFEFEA
UniProt Q14240, whole entry, looked up: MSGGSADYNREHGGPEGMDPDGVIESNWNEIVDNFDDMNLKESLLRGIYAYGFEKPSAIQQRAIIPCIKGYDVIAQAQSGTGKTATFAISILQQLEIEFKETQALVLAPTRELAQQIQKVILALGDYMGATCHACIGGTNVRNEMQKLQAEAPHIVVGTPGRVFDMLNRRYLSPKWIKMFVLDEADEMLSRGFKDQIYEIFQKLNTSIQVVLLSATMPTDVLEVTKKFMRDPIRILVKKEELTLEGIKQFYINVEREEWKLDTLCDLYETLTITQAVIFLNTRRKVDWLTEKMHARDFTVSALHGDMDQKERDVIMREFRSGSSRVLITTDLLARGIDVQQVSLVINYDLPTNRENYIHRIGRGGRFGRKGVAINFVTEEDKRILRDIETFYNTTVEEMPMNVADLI
UniProt O43402: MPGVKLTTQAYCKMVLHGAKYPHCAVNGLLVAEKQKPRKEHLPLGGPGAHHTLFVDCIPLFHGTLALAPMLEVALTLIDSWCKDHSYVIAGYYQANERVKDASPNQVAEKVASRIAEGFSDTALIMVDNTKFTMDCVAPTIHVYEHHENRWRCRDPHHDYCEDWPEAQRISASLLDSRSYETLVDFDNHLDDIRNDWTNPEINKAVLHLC
UniProt Q9GZV4: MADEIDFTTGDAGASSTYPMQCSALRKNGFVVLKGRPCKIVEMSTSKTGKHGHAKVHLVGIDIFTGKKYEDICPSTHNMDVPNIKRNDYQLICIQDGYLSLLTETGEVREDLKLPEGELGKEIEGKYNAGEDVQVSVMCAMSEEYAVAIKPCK
UniProt P07814: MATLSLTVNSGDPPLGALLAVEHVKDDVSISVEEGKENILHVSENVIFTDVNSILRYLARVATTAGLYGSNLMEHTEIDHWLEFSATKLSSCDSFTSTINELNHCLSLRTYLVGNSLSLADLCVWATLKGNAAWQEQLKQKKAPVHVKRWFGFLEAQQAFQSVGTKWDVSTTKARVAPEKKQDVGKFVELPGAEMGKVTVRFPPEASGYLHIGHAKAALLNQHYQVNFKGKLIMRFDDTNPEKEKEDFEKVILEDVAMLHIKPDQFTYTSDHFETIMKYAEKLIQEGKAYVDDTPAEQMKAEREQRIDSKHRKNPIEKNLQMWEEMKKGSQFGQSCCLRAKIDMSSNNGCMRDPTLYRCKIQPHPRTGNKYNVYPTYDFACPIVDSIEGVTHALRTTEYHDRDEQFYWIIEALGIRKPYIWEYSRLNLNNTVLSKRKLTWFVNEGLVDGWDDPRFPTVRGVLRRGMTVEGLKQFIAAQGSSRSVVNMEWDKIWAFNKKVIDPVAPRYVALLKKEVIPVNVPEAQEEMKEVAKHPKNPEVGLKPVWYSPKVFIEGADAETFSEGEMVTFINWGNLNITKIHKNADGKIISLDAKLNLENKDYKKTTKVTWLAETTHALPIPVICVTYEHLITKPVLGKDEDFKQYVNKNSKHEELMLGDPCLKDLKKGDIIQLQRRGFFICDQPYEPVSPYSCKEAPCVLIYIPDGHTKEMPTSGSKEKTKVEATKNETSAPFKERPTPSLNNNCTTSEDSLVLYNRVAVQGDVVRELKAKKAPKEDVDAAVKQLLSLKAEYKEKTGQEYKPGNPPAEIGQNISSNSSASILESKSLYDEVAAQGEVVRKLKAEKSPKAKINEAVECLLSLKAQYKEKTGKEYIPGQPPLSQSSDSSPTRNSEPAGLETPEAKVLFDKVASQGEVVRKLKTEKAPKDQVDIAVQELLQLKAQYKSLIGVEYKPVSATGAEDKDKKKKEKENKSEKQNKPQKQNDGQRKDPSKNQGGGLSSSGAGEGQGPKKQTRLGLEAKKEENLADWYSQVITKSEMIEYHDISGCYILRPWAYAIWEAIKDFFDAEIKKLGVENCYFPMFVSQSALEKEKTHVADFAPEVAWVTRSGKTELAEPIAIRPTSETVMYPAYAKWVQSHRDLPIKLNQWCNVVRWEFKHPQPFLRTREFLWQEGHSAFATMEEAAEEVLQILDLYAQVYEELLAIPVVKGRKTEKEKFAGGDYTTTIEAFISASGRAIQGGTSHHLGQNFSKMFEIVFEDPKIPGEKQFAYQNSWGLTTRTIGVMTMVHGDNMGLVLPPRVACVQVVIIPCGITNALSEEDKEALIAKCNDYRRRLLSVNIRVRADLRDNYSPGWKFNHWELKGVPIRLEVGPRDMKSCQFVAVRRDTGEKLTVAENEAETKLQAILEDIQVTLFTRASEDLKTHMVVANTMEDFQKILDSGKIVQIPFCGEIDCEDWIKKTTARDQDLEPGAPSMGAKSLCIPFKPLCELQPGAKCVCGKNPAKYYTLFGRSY
UniProt Q8TE02: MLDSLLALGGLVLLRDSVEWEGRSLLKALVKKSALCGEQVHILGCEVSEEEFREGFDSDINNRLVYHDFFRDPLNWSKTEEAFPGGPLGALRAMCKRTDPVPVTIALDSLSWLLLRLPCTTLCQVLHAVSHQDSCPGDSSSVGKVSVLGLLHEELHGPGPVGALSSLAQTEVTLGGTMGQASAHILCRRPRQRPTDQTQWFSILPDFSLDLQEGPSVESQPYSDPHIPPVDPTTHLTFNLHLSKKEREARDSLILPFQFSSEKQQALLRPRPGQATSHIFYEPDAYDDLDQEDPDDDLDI
UniProt P42566: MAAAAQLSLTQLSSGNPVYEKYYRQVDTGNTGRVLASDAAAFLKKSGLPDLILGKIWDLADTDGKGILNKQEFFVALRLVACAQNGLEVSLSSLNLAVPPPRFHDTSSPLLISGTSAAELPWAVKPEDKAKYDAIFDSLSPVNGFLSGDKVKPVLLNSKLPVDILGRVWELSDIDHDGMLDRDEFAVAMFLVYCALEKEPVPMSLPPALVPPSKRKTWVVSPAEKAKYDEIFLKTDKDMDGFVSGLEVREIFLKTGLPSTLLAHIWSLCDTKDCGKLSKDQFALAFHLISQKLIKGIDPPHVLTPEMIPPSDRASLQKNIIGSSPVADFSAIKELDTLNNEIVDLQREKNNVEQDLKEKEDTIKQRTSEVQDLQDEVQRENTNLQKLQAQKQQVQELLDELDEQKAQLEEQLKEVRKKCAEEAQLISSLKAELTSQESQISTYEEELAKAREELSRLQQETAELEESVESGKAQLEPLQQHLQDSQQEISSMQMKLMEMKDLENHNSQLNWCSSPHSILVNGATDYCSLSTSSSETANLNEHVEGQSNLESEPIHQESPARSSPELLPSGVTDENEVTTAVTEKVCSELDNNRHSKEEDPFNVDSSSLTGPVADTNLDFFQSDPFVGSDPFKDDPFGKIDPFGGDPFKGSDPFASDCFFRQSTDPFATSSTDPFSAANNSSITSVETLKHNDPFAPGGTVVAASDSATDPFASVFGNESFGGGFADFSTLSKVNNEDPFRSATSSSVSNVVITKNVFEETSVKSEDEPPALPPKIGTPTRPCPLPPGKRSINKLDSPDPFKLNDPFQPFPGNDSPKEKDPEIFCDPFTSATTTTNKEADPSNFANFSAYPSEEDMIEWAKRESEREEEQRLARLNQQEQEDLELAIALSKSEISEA

Row | Target | probe-labelled cysteine peptide fold change (10 µM) | probe-labelled cysteine peptide fold change (50 µM)
1 | ELAVL1_Q15717_13_SNGYEDHMAEDCR (UniProt Q15717) | 0.863 | 1.62
2 | EPHX2_P34913_71_GEITLSQWIPLMEENCR (UniProt P34913) | 0.288 | 0.305
3 | EML2_O95834_604+605_VHLFSYPCCQPR (UniProt O95834) | -0.152 | -0.331
4 | EPHX2_P34913_309_GYGESSAPPEIEEYCMEVLCK (UniProt P34913) | 0.173 | 0.147
5 | EIF4G2_P78344_253_DMGEDLECLCQIMR (UniProt P78344) | 0.0454 | -0.0142
6 | EIF3I_Q13347_76_HVLTGSADNSCR (UniProt Q13347) | -0.0836 | -0.128
7 | EIF4A2_Q14240_132+135_VILALGDYMGATCHACIGGTNVR (UniProt Q14240) | 0.3 | 0.0623
8 | EMC8_O43402_24_YPHCAVNGLLVAEK (UniProt O43402) | 0.0514 | 0.0611
9 | EPG5_Q9HCE0_1586_QYVNREEQTTLHLECR (UniProt Q9HCE0) | 0.0905 | -0.0417
10 | EIF5A2_Q9GZV4_22_ADEIDFTTGDAGASSTYPMQCSALRK (UniProt Q9GZV4) | -0.0868 | -0.294
11 | EPRS_P07814_692_RGFFICDQPYEPVSPYSCK (UniProt P07814) | -0.0837 | -0.277
12 | ELP5_Q8TE02_151_LPCTTLCQVLHAVSHQDSCPGDSSSVGK (UniProt Q8TE02) | 0.187 | 0.148
13 | EPS15_P42566_782_IGTPTRPCPLPPGKR (UniProt P42566) | -0.367 | -1.1
14 | EMC8_O43402_161_CRDPHHDYCEDWPEAQR (UniProt O43402) | 0.564 | 0.211

Some values from the list:
Value for EIF4A2_Q14240_132+135_VILALGDYMGATCHACIGGTNVR (UniProt Q14240) under probe-labelled cysteine peptide fold change (10 µM): 0.3
Value for EIF5A2_Q9GZV4_22_ADEIDFTTGDAGASSTYPMQCSALRK (UniProt Q9GZV4) under probe-labelled cysteine peptide fold change (50 µM): -0.294

Reference: the supplement of paper PMC12067093, “Discovery and optimisation of a covalent ligand for TRIM25 and its application to targeted protein ubiquitination” (Chemical Science, 2025)
